Source: PubChem BioAssay AID485314 (National Center for Advancing Translational Sciences (NCATS), 2010)
About 4,500 (1.3%) of roughly 340,000 compounds were called active. The shares of active, inactive and inconclusive entries below differ from those in the screen. The call rests on the fitted dose curve; in most records, active means well fitted inhibition curve with a large enough effect; inconclusive means small, poorly fitted or top-dose-only effect, or another doubt; inactive means no such curve, though single readings can be large or run the other way. Where the call is inconclusive, the potency comes from a doubtful curve fit.

What follows are compounds tested against DNA polymerase beta (Homo sapiens) (UniProt P06746) (assay: qHTS Assay for Inhibitors of DNA Polymerase Beta). Details: Pol beta primer extension/strand displacement, fluorescence kinetic; activity change, negative = inhibition: at 114 µM (top of the series).
Procedure, shortened: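 Values derive from four-parameter Hill fits of normalized kinetic data: reads at 0 and 10 min following addition of 50 nM substrate to 10 nM Pol beta preincubated 15 min with compound.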
On the % scale 0 is the no-effect control and ±100 the full control effect; potency means the concentration at half of the fitted maximal effect.

Activity change, negative = inhibition, inconclusive:
COc1ccccc1NC(=O)CSc1nnc(CNC(=O)c2cccs2)o1 -34.9% [inhibitor]
NNC(=S)Nc1cccc(-c2n[nH]c(=S)o2)c1 -31.2% [inhibitor]
COc1cc(/C=C2\SC(=S)N(NC(=O)c3ccc(O)c(OC)c3)C2=O)ccc1O -60.8% [inhibitor]
COC(=O)C(C)Oc1ccc2cc(-c3ccccc3)c(=O)oc2c1 (configuration not stated) -30.5% [inhibitor]

Potency, inactive:
COc1cccc(C(=O)Nc2c(C(=O)c3ccc(F)cc3)oc3ccccc23)c1
COc1ccc(/C=C2\SC(=O)N(CCCC(=O)Nc3ccc(C(=O)O)cc3)C2=O)cc1OC
Oc1ccc(/C=C/c2ccnc3ccccc23)cc1
COc1ccc(NC(=O)CN2C(=O)COc3ccc(S(=O)(=O)N4CCCCC4)cc32)cc1Cl
O=C1CC(c2nnc(Cc3ccccc3Cl)o2)CN1c1ccccc1 (configuration not stated)
CCC(=O)OCCNc1cc(SCCC(=O)OC)c2nonc2c1[N+](=O)[O-]
COc1ccc(C2=NOC(C(=O)O)C2)cc1 (configuration not stated)
Cc1ccc(OCc2nc(-c3ccc(C(=O)N4CCN(c5cc(Cl)ccc5C)CC4)cc3)oc2C)cc1
CN(C)c1ccc(N=Nc2ccccc2C(=O)OCC(=O)NC2CCCC2)cc1
Cc1cccc(OCCSc2nc3ccc(NC(=O)c4cccs4)cc3s2)c1
COC(=O)c1ccc(Cl)cc1NC(=O)NCc1c(-n2cccc2)sc2c1CCCC2
COc1ccccc1S(=O)(=O)CC(O)COc1ccc(C#N)cc1 (configuration not stated)
Cc1ccc(NC(=O)c2c(C(=O)Nc3ccccc3)sc3nc(C)cc(=O)n23)c(C)c1
CC(=C/c1ccco1)/C=N/NC(=O)c1ccncc1

Potency, inconclusive:
N#Cc1ccc(-c2ccc(OCC(=O)NCCCN3CCCC3=O)cc2)cc1 3.98 µM [inhibitor, single point]
Cc1oc(-c2ccc(Cl)cc2)nc1CSCC(=O)NCc1ccccc1Cl 79.4 µM [inhibitor, single point]
CC1=C/C(=N\N=C2\NC(=O)C(CC(=O)Nc3ccccc3F)S2)CC(C)(C)C1 (configuration not stated) 0.891 µM [inhibitor, full curve, poor fit]
COCCNC(=O)c1cnn2c(C(F)(F)F)cc(-c3ccc4c(c3)OCO4)nc12 89.1 µM [inhibitor, single point]
CC(=O)c1cc(C#N)c(NCc2cc(-c3ccccc3)no2)nc1C 25.1 µM [inhibitor, single point]
COc1ccc(CNC(=O)COc2ccc(S(=O)(=O)N3CCOCC3)cc2C)cc1 7.94 µM [inhibitor, partial curve]
CCOC(=O)c1cnc2ccc(C)cc2c1NCCc1ccc(OC)c(OC)c1 0.141 µM [inhibitor, full curve]
Cc1ccc(NC(=O)c2sc3nc(-c4ccc(F)cc4)ccc3c2N)cc1F 1 µM [inhibitor, full curve, poor fit]
CCOC(=O)c1c(C)[nH]c(C(=O)COC(=O)CSCC(=O)N(CC)CC)c1C 100 µM [inhibitor, single point]
O=C1Nc2ccc(Cl)cc2C12Nc1ccccc1-c1nnc(SCc3ccccc3F)nc1O2 (configuration not stated) 50.1 µM [inhibitor, partial curve]
CCOCCCn1c(=N)c(C(=O)NCc2ccc3c(c2)OCO3)cc2c(=O)n3ccccc3nc21 28.2 µM [inhibitor, partial curve]
c1ccc(C2[C@H]3CN(CC4CCCCC4)[C@H](c4ccccc4)C34CC2(c2cccnc2)C4)cc1 (some centres not stated) 8.91 µM [inhibitor, full curve, poor fit]
Cc1ccc(C)c(NC(=O)NNC(=O)c2ccc3ccccc3c2O)c1 17.8 µM [inhibitor, partial curve]
COCC(C)NC(=O)c1cc(-c2ccc(OC)c(OC)c2)on1 (configuration not stated) 100 µM [inhibitor, single point]
O=C(COC(=O)COc1ccc(Nc2ccccc2)cc1)NCc1ccco1 31.6 µM [inhibitor, full curve]
COCCOC(=O)c1c(C)oc2ccc(OC(=O)c3c(OC)cccc3OC)cc12 70.8 µM [inhibitor, single point]
Cc1[nH]n(-c2ccccc2)c(=O)c1/C=N/N1C(=O)c2ccc3c4c(ccc(c24)C1=O)CC3 31.6 µM [inhibitor, partial curve]
CCC1CCCCN1CCCNC(=O)c1ccc2c(c1)N(Cc1ccc(Cl)cc1)C(=O)c1ccccc1S2(=O)=O (configuration not stated) 20 µM [inhibitor, single point]
O=C(/C=C/c1nc2ccccc2s1)N1CCCCCC1 100 µM [inhibitor, single point]
c1ccc(CSc2nnc3c(n2)OC(c2ccco2)Nc2ccccc2-3)cc1 (configuration not stated) 35.5 µM [inhibitor, partial curve]
COC1=CC(=O)OC12CCCCC2 5.01 µM [inhibitor, full curve, poor fit]
Cc1ccc(NC(=O)c2cc(S(=O)(=O)N3CCOCC3)c(Br)s2)cc1 0.316 µM [inhibitor, full curve, poor fit]
O=C(CSc1nc(C2CC2)nc2c1cnn2-c1ccccc1)Nc1c[nH]c(=O)[nH]c1=O 22.4 µM [inhibitor, full curve]
CCC(Cc1ccccc1)NS(=O)(=O)c1c(C)nc2sccn2c1=O (configuration not stated) 0.158 µM [inhibitor, full curve]
CN(C)C(CN=C1NS(=O)(=O)c2ccccc21)c1ccco1 (configuration not stated) 0.126 µM [inhibitor, full curve, poor fit]
O=C(Cn1ccn(-c2ccc(F)c(F)c2)c(=O)c1=O)c1ccc(F)cc1 8.91 µM [inhibitor, full curve]
CNC(=O)Nc1cccc2cccnc12 3.16 µM [inhibitor, single point]
CC(=O)Nc1ccc(NC(=O)c2cccc3c2-c2ccccc2C3=O)cc1 15.8 µM [inhibitor, partial curve, poor fit]
C=CCN1/C(=C2/SC(=S)N(C)C2=O)Sc2ccccc21 100 µM [inhibitor, single point]
COc1ccc(NC(=O)Cc2nc3ccccc3[nH]2)cc1 39.8 µM [inhibitor, single point]
Cc1ccc(NC(=O)Nc2ccc(C(=O)N3CCOCC3)cc2)cc1 100 µM [inhibitor, single point]
CCOc1ccc(C(O)(c2ccccc2)C(CN2CCCC2)c2ccccc2)cc1 (configuration not stated) 5.01 µM [inhibitor, partial curve]
COC(=O)C1=C(C)NC(C)=C(C(=O)OC)C1c1cc2cc(C)ccc2[nH]c1=O 2.51 µM [inhibitor, partial curve]
Cc1cccc(NCc2cc(Cl)cc(Cl)c2O)n1 89.1 µM [inhibitor, single point]
CCC(C)c1ccc(NC(=O)CN(C)CC(=O)Nc2cccc(OC)c2)cc1 (configuration not stated) 79.4 µM [inhibitor, single point]
CC(NC(=O)c1ccccc1)c1nc2ccccc2n1Cc1ccc(C#N)cc1 (configuration not stated) 89.1 µM [inhibitor, single point]
O=c1[nH]cnc2nc3n(c12)CCCCC3 89.1 µM [inhibitor, single point]
CC(=O)Nc1nc2ccc(S(=O)(=O)N3CCCCC3)cc2s1 0.447 µM [inhibitor, full curve, poor fit]
Cc1cc(C)c(S(=O)(=O)c2ccccc2C)c(SCC(C)C)n1 89.1 µM [inhibitor, single point]
CN1C(=O)c2c(sc3c2CC(C)(C)SC3)N2CCN=C12 15.8 µM [inhibitor, partial curve, poor fit]
COc1cc2[nH]c(=S)n(C3CCN(Cc4ccccc4)CC3)c(=O)c2cc1OC 100 µM [inhibitor, single point]
CC(Oc1ccccc1Cl)C(=O)N(Cc1ccco1)C1CCS(=O)(=O)C1 (configuration not stated) 89.1 µM [inhibitor, single point]
CCN(CC)CCN(C(=O)c1ccc(S(=O)(=O)N2CCCCC2)cc1)c1nc2cc3c(cc2s1)OCO3 17.8 µM [inhibitor, partial curve]

Random excerpt: 5 compounds from above
Potency, inconclusive:
COCCNC(=O)c1cnn2c(C(F)(F)F)cc(-c3ccc4c(c3)OCO4)nc12 89.1 µM [inhibitor, single point]
Cc1ccc(NC(=O)c2sc3nc(-c4ccc(F)cc4)ccc3c2N)cc1F 1 µM [inhibitor, full curve, poor fit]
O=C(CSc1nc(C2CC2)nc2c1cnn2-c1ccccc1)Nc1c[nH]c(=O)[nH]c1=O 22.4 µM [inhibitor, full curve]
N#Cc1ccc(-c2ccc(OCC(=O)NCCCN3CCCC3=O)cc2)cc1 3.98 µM [inhibitor, single point]
O=C(COC(=O)COc1ccc(Nc2ccccc2)cc1)NCc1ccco1 31.6 µM [inhibitor, full curve]

Following part.

Potency, active:
Cc1ccc2nc(-c3ccc(O)c(O)c3)cn2c1 3.98 µM
COc1cc(NC(=O)c2ccc([N+](=O)[O-])o2)ccc1NC(=O)c1ccco1 0.355 µM
CC1=C(c2ccc(C)c(C)c2)S(=O)(=O)N=C1N1CCC(C(=O)Nc2cccc(F)c2)CC1 20 µM
CC(=O)N1CCc2cc(S(=O)(=O)CCC(=O)NCc3ccc4c(c3)OCO4)ccc21 44.7 µM
Cc1cccc(OCC(=O)OCc2cc(=O)n3nc(-c4cccs4)sc3n2)c1 25.1 µM
NC(=O)c1c(NC(=O)C2c3ccccc3Oc3ccccc32)sc2c1CCCCC2 44.7 µM
